Data taken from publication doi:10.1101/2024.04.30.591961.
Results are given in words; binding and its absence hold for the method and conditions named. In cells and extracts the contact can be indirect. Here binding means that the protein was enriched with, or labelled near, the bait; the list need not be complete.

Protein sequences, listed by entry. Tags and fused reporters are not part of them. Lines headed by an entry give the natural chain unless they say otherwise; changes in a name come on top.
UniProt P27796: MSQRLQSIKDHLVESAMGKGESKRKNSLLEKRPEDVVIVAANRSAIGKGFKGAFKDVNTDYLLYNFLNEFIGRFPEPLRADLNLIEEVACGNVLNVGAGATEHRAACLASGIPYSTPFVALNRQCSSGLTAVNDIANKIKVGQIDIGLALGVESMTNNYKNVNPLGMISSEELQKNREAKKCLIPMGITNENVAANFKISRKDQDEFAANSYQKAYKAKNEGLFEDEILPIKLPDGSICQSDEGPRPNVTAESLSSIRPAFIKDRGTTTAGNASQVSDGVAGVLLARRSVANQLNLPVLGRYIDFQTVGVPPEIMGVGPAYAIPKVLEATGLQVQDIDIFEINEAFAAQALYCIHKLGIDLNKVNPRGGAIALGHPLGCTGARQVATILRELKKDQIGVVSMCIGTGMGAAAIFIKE

T1: Pex18-TPA (S. cerevisiae) (UniProt P38855)
T1 sequence: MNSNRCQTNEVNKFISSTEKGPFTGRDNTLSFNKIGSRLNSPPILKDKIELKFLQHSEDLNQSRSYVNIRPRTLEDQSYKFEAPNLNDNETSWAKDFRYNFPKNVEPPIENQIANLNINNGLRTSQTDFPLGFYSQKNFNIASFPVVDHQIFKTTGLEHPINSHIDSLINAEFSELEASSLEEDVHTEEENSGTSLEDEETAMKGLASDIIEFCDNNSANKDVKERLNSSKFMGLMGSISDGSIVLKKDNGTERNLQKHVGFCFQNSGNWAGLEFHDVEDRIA

B1: ScPex39 (protein, UniProt P47087 1-132)
chain: MAAGGELSYEELLDHILNNKPIPNIVEVPNVTLDEGLASTPSLRPRPRPWEGQLQHQSHQGSLDKPNISLDIDQESLEGMTSLTRLSECYDIQSKLQINDSDNDNDDNNNDNNKGDGNDDDNNTVTANPTAR
B2: Pex7 (S. cerevisiae) (receptor, UniProt P39108 1-375)
chain: MLRYHMQGFSGYGVQYSPFFDNRLAVAAGSNFGLVGNGKLFILEIDRSGRIVEVNSFLTQDCLFDLAWNESHENQVLVAQGDGTLRLFDTTFKEFPIAIFKEHEREVFSCNWNLVNRQNFLSSSWDGSIKIWSPLRKQSLMTLTPRPLEITKMVDPLNAIILKKKSFTGISKNRNCVYQAQFSPHDQNLVLSCSGNSYASLFDIRLPSGKNQNNFLVHSGLEALTCDFNKYRPYVVATGGVDNAIRIWDIRMLNKNESATIKRTVPGQLHNSSCINEIPNAHGLAIRKVTWSPHHSNILMSASYDMTCRIWRDLSNDGAKETYKTNSTDATKGSIFNFTQHSEFVFGADWSLWGKPGYVASTAWDGNLFVWNGLG

Each molecule was assayed against T1, Pex18-TPA (S. cerevisiae) (assay: affinity purification with mass spectrometry).

binding, binds:
peroxisomal 3-ketoacyl-CoA thiolase (Pot1) (from UniProt P27796) (enzyme)
B1
B2
